Source: PubChem BioAssay AID540276 (National Center for Advancing Translational Sciences (NCATS), 2011)
Out of some 300,000 compounds screened, about 5,400 (1.8%) were called active. The inconclusive results got no clear call from the source; some entries with a clear call stand among them for comparison. Calls come from the whole dose curve; tested in HEK293 cells. A potency beside an inconclusive call is a rough fit, not a confirmed value.

Assay: qHTS for inhibitors of binding or entry into cells for Marburg Virus
Details: Marburg virus pseudotyped entry inhibition, cell reporter; series mostly up to 37.8 µM
Potency is the fitted concentration of half-maximal effect.

| Structure (SMILES) | Potency |
| --- | --- |
| Cc1ccc(-n2nnnc2SCC(=O)N2CC(=O)Nc3ccccc32)cc1 | inactive |
| Cc1cc(=O)n2nc(N(C)CC(=O)NCc3cccc(Br)c3)sc2n1 | inactive |
| NC(=S)N/N=C/c1ccc2ccccc2c1 | inconclusive: 0.112 µM [inhibitor, full curve, poor fit] |
| CCN(CC)c1nc(NNC(=O)c2ccccc2)nc(N(CC)CC)n1 | inactive |
| CCc1ccc(CN(C)CC(O)COc2cccc3ccccc23)cc1 (configuration not stated) | inconclusive: 14.1 µM [inhibitor, partial curve, poor fit] |
| Fc1ccc(CN2CCSCC2)cc1F | inconclusive: 0.126 µM [inhibitor, full curve, poor fit] |
| CC(OC(=O)/C=C/c1ccc2ccccc2n1)C(=O)Nc1ccc(S(N)(=O)=O)cc1 (configuration not stated) | inconclusive: 8.91 µM [inhibitor, partial curve, poor fit] |
| Cc1c(NC(=S)NC(=O)c2ccc(-c3ccc(Cl)cc3)o2)cccc1C(=O)O | inconclusive: 35.5 µM [activator, single point] |
| CCOc1ccc(-c2ccc(SCC(=O)NC3CCCCC3)nn2)cc1 | inconclusive: 2.51 µM [activator, partial curve] |
| Cc1nn(-c2ccccc2)c(Cl)c1C(=O)OCC(=O)NCCc1ccccc1 | active: 11.2 µM |
| CCSc1oc(-c2ccco2)nc1S(=O)(=O)c1ccccc1 | inconclusive: 0.461 µM [inhibitor, full curve, poor fit] |
| CCOC(=O)C1CCN(C(=O)COc2cc(C)c(Br)cc2C)CC1 | inconclusive: 35.5 µM [inhibitor, single point] |
| CCCSC(=S)NC1CCS(=O)(=O)C1 (configuration not stated) | inconclusive: 16.4 µM [inhibitor, partial curve, poor fit] |
| COc1ccc(C(=O)N2CCC(C(=O)Nc3ccc(Cl)cc3)CC2)cc1 | inactive |
| NC(=O)c1nnn(-c2ccccc2)c1N | inactive |
| CCOc1ccccc1NC(=O)C(OC(=O)c1ccc(O)cc1)c1ccccc1 (configuration not stated) | inconclusive: 20 µM [inhibitor, single point] |
| COc1cccc(O)c1CN1CCC(C(=O)Nc2ccc(-c3cccc(C)c3)cc2)CC1 | inconclusive: 1 µM [inhibitor, full curve, poor fit] |
| CC(C)=CCN1C(=O)[C@]2(OCCC=C[C@H]2C)c2c(Br)cccc21 | inconclusive: 6.68 µM [activator, single point] |
| COc1cccc(CNc2nc3ccccc3n2CCN2CCCCC2)c1 | inconclusive: 18.3 µM [inhibitor, single point] |
| S=C(Nc1ccccc1)N1CCOCCOCCN(C(=S)Nc2ccccc2)CCOCCOCC1 | active: 5.62 µM |
| CCOc1ccc(S(=O)(=O)N(CC(=O)NCc2ccccc2OC)c2ccccc2)cc1 | inconclusive: 25.1 µM [inhibitor, single point] |
| O=C(Cc1cccs1)NCc1cccc(C(F)(F)F)c1 | inconclusive: 7.08 µM [activator, partial curve, poor fit] |
| CCN(CC(=O)NCc1ccc(F)cc1)C(=O)c1cc2ccccc2o1 | inconclusive: 5.01 µM [inhibitor, partial curve] |
| COCC(=O)Nc1c(C(=O)Nc2ccc3c(c2)OCCO3)oc2ccccc12 | active: 11.2 µM |

An excerpt from above in order of formula weight, descending.

| Structure (SMILES) | Potency |
| --- | --- |
| CCN(CC(=O)NCc1ccc(F)cc1)C(=O)c1cc2ccccc2o1 | inconclusive: 5.01 µM [inhibitor, partial curve] |
| CCc1ccc(CN(C)CC(O)COc2cccc3ccccc23)cc1 (configuration not stated) | inconclusive: 14.1 µM [inhibitor, partial curve, poor fit] |
| CCSc1oc(-c2ccco2)nc1S(=O)(=O)c1ccccc1 | inconclusive: 0.461 µM [inhibitor, full curve, poor fit] |

Further structures follow:

| Structure (SMILES) | Potency |
| --- | --- |
| O=C(CCC1CCCCC1)NCc1ccncc1 | inconclusive: 1.26 µM [inhibitor, single point] |
| Cc1nc(NCCc2ccccc2)sc1C(=O)N(C)C | inconclusive: 4.47 µM [activator, single point] |
| Cc1noc(C)c1C(=O)Nc1ccc(F)cc1 | inactive |
| CCc1ccc(Oc2c(C(F)(F)F)oc3c(CN4CCC(C)CC4)c(O)ccc3c2=O)cc1 | inactive |
| COc1cc(-c2cc(OC)c3c(C)oc(C)c3c(=O)c2)ccc1O | inactive |
| CCCNC(=O)N1CCC(n2nccc2NC(=O)CCOc2ccccc2)CC1 | inactive |
| CCNC(=S)Nc1cccc(S(=O)(=O)Nc2ccccc2OC)c1 | inactive |
| Cc1cc(C)cc(NC(=S)NCc2cccn2C)c1 | inactive |
| CN1CCN(S(=O)(=O)c2cccc(C(=O)N(C)CC(=O)Nc3ccc(F)c(F)c3F)c2)CC1 | inactive |
| Cc1cc(N(CC(=O)NC2CC2)S(C)(=O)=O)ccc1Br | inconclusive: 5.62 µM [activator, partial curve, poor fit] |
| O=S(=O)(NC1CCCCC1Sc1ncccn1)c1ccccc1 (configuration not stated) | inconclusive: 35.5 µM [inhibitor, single point] |
| Fc1cccc(Cc2noc(CN3CCCN(C4Cc5ccccc5C4)CC3)n2)c1 | active: 11.2 µM |
| COC(=O)C1CCN(C(=O)c2cc(OC)c(OC)c(OC)c2)CC1 | inactive |
| COc1ccc(N(CC(=O)Nc2cc(C)on2)S(=O)(=O)c2cc(C)ccc2C)cc1 | inconclusive: 29.1 µM [inhibitor, single point] |
| COc1ccc(CCC(C)Nc2ccccc2F)cc1 (configuration not stated) | inconclusive: 0.141 µM [activator, full curve, poor fit] |
| COc1ccc(N(C)S(=O)(=O)c2cccc(C(=O)NCC3CCCCC3)c2)cc1 | inconclusive: 14.1 µM [inhibitor, single point] |
| CCc1nc(OCCN(C)C)c2oc3ccccc3c2n1 | inactive |
| CCOC(=O)C1CCCN(C(=O)c2csc(-c3ccc4c(c3)CCO4)n2)C1 (configuration not stated) | inconclusive: 0.631 µM [activator, full curve, poor fit] |
| O=C(CC(SCCO)c1ccc(F)cc1)c1ccco1 (configuration not stated) | inactive |
| Cc1ccccc1Nc1c(-c2ccc(Br)o2)nc2ccc(Cl)cn12 | inactive |
| COC(=O)C(C(=O)OC)C1c2ccccc2C=C(C2CC2)N1C(=O)OC (configuration not stated) | inconclusive: 5.96 µM [activator, single point] |
| CC(C)CCNC(=O)Nc1ccc2c(c1)N(Cc1ccccc1)C(=O)c1ccccc1S2 | inconclusive: 0.891 µM [inhibitor, full curve, poor fit] |
| Cc1ccc2c(ccn3cc4c(c(=O)n(C)c(=O)n4C)c23)c1 | inconclusive: 5.62 µM [inhibitor, single point] |
| COc1cc(C)ccc1OCCOc1ccccc1Cl | inconclusive: 2.82 µM [activator, single point] |

| Structure (SMILES) | Potency |
| --- | --- |
| O=C(CC(c1ccco1)S(=O)(=O)c1ccccc1)c1ccccc1 (configuration not stated) | inactive |
| CCn1c(O)c(N=NC(=O)CNC(=O)/C=C/c2ccco2)c2ccccc21 | inactive |
| C[C@@]1(CO)[C@H](O)CC[C@@]2(C)[C@H]1CC[C@H]1C[C@@H]3C[C@@]12CC[C@]3(O)CO | active: 0.517 µM |
| C=CCOC(=O)N[C@H](C(C(=O)OC)=C(C)NCc1ccccc1)c1cccc(F)c1 | inconclusive: 1.88 µM [inhibitor, partial curve, poor fit] |
| CCOCCCN1C(=O)c2[nH]nc(-c3ccccc3O)c2C1c1ccc(CC)cc1 (configuration not stated) | inconclusive: 25.1 µM [inhibitor, single point] |
| CCOC(=O)N1CCN(C(=O)c2ccc3c(=O)n(CCc4ccccc4)c(=S)[nH]c3c2)CC1 | inactive |
| COc1cc(NC(=O)COc2ccc(F)cc2)nc(OC)n1 | inactive |
| O=C1C(Cl)=C(Oc2ccccc2)C(=O)c2ccccc21 | inconclusive: 12.6 µM [inhibitor, partial curve, poor fit] |
| COc1ccc(/C=C/C(=O)Nc2ccccc2C(N)=O)cc1S(=O)(=O)N1CCOCC1 | inactive |
| Cc1cc2c(SCC(=O)Nc3ccccc3O)ncnc2s1 | inactive |
| CCCCNc1cnn(-c2ccccc2)c(=O)c1Cl | inconclusive: 6.31 µM [activator, single point] |
| Cc1nc(Nc2ccccc2)c2oc3ccc(Cl)cc3c2n1 | inconclusive: 35.5 µM [inhibitor, single point] |
| O=C(Nc1ccc2nc(SCC(=O)N3CCCC3)sc2c1)c1cccc(Br)c1 | inconclusive: 35.5 µM [inhibitor, single point] |
| COC(=O)c1ccc(Cl)cc1NC(=O)/C=C/c1ccc(C)o1 | inactive |
| Cc1ccc(-n2nc(C)c(NC(=O)COC(=O)c3ccccc3NCCO)c2C)cc1 | inconclusive: 0.891 µM [activator, single point] |
| Cc1cccc(NC(=O)CCC2CCN(C(=O)C3CC=CCC3)CC2)c1 (configuration not stated) | inconclusive: 3.98 µM [inhibitor, partial curve, poor fit] |
| CCN(CC)S(=O)(=O)c1cccc(C(=O)N[C@H](C(=O)Nc2nc3ccc(F)cc3s2)C(C)C)c1 | inconclusive: 10 µM [inhibitor, partial curve, poor fit] |
| Cc1cc(C)c(C)c(S(=O)(=O)N2CCN(C(=O)C3CSC4(C)CCC(=O)N34)CC2)c1C (configuration not stated) | inactive |
| COc1ccccc1N1C(=O)N(C(C)=O)C2C1Nc1ccccc1N2C (configuration not stated) | active: 11.6 µM |
| Cc1cc(NC(=O)COC(=O)c2ccccc2S(=O)(=O)N(C)c2ccccc2)no1 | inconclusive: 0.631 µM [inhibitor, full curve, poor fit] |
| O=C(NC1CCCCCC1)c1ccc(CN2CCOCC2)cc1 | inconclusive: 3.16 µM [activator, single point] |
| CC(C)(C)CN1CCN(Cc2nc(-c3ccc(F)cc3)cs2)CC1CCO (configuration not stated) | inconclusive: 17.8 µM [inhibitor, partial curve] |
| COc1cc2c(cc1OC)C(C)N(C(=O)C1COc3ccccc3O1)CC2 (configuration not stated) | inconclusive: 15.8 µM [inhibitor, partial curve, poor fit] |
| Cc1ccc(NC2c3ncccc3C(=O)N2c2ccccc2C)cc1C (configuration not stated) | inconclusive: 2.24 µM [activator, single point] |
